4 molecules from patent US20150140001A1 (Scripps Research, published 2015) can be followed below.

B1: clec14a-CTLD IgG clone 1 (antibody, V domains shown)
VH: EVQLLESGGGLVQPGGSLRLSCAASGFTFSGYDMSWVRQAPGKGLEWVSGIYPDGGNTYYADSVKGRFTISRDNSKNTLYLQMNSLRAEDTAVYYCARGATWWVLGPFDYWGQGTLVTVSS
VL: QSVLTQPPSASGTPGQRVTISCTGSSSNIGNNSVTWYQQLPGTAPKLLIYADSHRPSGVPDRFSGSKSGTSASLAISGLRSEDEADYYCGAWDDSLSGYVFGGGTKLTVL
notes: scFv converted to IgG; Lambda light chain, detected with anti-human lambda antibody
B2: clec14a-CTLD IgG clone 2 (antibody, V domains shown)
VH: EVQLLESGGGLVQPGGSLRLSCAASGFTFSSYDMSWVRQAPGKGLEWVSVISPDSSSTYYADSVKGRFTISRDNSKNTLHLQMNSLRAEDTAVYYCARHTGWQSRPHTYYDYGMDVWGQGTLVTVSS
VL: B1 VL with T23S, S33A, A51S, S53N, A91T, D94A
notes: Lambda light chain
B3: clec14a-CTLD IgG clone 3 (antibody, V domains shown)
VH: EVQLLESGGGLVQPGGSLRLSCAASGFTFSDYYMSWVRQAPGKGLEWVSLISYDGGSTYYADSVKGRFTISRDNSKNTLYLQMNSLRAEDTAVYYCARSNDWFDYWGQGTLVTVSS
VL: B1 VL with T23S, N31S, S33N, T35Y, A51Y, H54Q, G98A
notes: Lambda light chain
B4: clec14a-CTLD IgG clone 4 (antibody, V domains shown)
VH: EVQLLESGGGLVQPGGSLRLSCAASGFTFSGYYMSWVRQAPGKGLEWVSVIYSGDGSTYYADSVKGRFTISRDNSKNTLYLQMNSLRAEDTAVYYCARGLNSSSALPFDYWGQGTLVTVSS
VL: B1 VL with T23S, N31S, S33A, T35N, H54N, A91S, D94Y, G98A

Positions count from the first letter of the chain named. Results are given in words; binding and its absence hold for the method and conditions named.

The test deals with Fc fragment of IgG1. The test is described as follows: ELISA, coated Fc fragment of IgG1. On the technique in general: An ELISA detects its analyte on a solid surface through an enzyme-linked reagent.
As for B1, the binding entry is on record as “no binding (tested: 67 nM clec14a-CTLD IgG (Example 8))”.

With B2, the binding result is “no binding (tested: 67 nM clec14a-CTLD IgG (Example 8))”.

Take B3: the binding entry is on record as “no binding (tested: 67 nM clec14a-CTLD IgG (Example 8))”.

With B4, the binding entry was “no binding (tested: 67 nM clec14a-CTLD IgG (Example 8))”.
